# The other results are listed elsewhere or left out.
# B1: Gal 10 (Homo sapiens), Q05315 (protein)
# chain: MSLLPVPYTEAASLSTGSTVTIKGRPLVCFLNEPYLQVDFHTEMKEESDIVFHFQVCFGRRVVMNSREYGAWKQQVESKNMPFQDGQEFELSISVLPDKYQVMVNGQSSYTFDHRIKPEAVKMVQVWRDISLTKFNVSYLKR
# Tests used:
# Experiment in all cases: glycan array binding signal (z-score within array); higher = stronger binding
# Details in all cases: glycan notation: IUPAC condensed, linker removed
# [1] = target: Gal(b1-3)[Fuc(a1-4)]GlcNAc(b1-3)Gal(b1-4)[Fuc(a1-3)]GlcNAc
# Method in brief: (§1)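 Glycan array data were curated from 3228 arrays in the Consortium for Functional Glycomics database and kept only where the protein sequence was available. Glycan names were converted to IUPAC-condensed notation, and columns mapping to the same glycan were averaged. The binding signal is a within-array Z-score, averaged across arrays of the same protein sequence at different concentrations or buffers and across linkers. Negative Z-scores can be read as non-binding.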
# [2] = target: Gal(b1-3)[Fuc(a1-4)]GlcNAc(b1-6)GalNAc
# Method in brief: as §1
# [3] = target: Gal(b1-3)[GlcNAc(b1-6)]GalNAc
# Method in brief: as §1
# [4] = target: Gal(b1-3)[Neu5Ac(a2-6)]GalNAc
# Method in brief: as §1
# [5] = target: Gal(b1-3)[Neu5Ac(a2-6)]GlcNAc(b1-4)Gal(b1-4)Glc
# Method in brief: as §1
# [6] = target: Gal(b1-3)[Neu5Ac(a2-6)]GlcNAc(b1-6)Gal(b1-4)Glc
# Method in brief: as §1
# [7] = target: Gal(b1-3)[Neu5Ac(b2-6)]GalNAc
# Method in brief: as §1
# [8] = target: Gal(b1-4)Gal
# Method in brief: as §1
# [9] = target: Gal(b1-4)GalNAc(a1-3)[Fuc(a1-2)]Gal(b1-4)GlcNAc
# Method in brief: as §1
# [10] = target: Gal(b1-4)GalNAc(b1-3)[Fuc(a1-2)]Gal(b1-4)GlcNAc
# Method in brief: as §1
# [11] = target: Gal(b1-4)Glc
# Method in brief: as §1
# [12] = target: Gal(b1-4)Glc6S
# Method in brief: as §1
# [13] = target: Gal(b1-4)GlcNAc
# Method in brief: as §1
# [14] = target: Gal(b1-4)GlcNAc(a1-6)Gal(b1-4)GlcNAc
# Method in brief: as §1
# [15] = target: Gal(b1-4)GlcNAc(b1-2)Man
# Method in brief: as §1
# [16] = target: Gal(b1-4)GlcNAc(b1-2)Man(a1-3)Man(b1-4)GlcNAc(b1-4)GlcNAc
# Method in brief: as §1
# [17] = target: Gal(b1-4)GlcNAc(b1-2)Man(a1-3)[Gal(b1-4)GlcNAc(b1-2)Man(a1-6)]Man(b1-4)GlcNAc(b1-4)GlcNAc
# Method in brief: as §1
# [18] = target: Gal(b1-4)GlcNAc(b1-2)Man(a1-3)[Gal(b1-4)GlcNAc(b1-2)Man(a1-6)]Man(b1-4)GlcNAc(b1-4)[Fuc(a1-6)]GlcNAc
# Method in brief: as §1
# [19] = target: Gal(b1-4)GlcNAc(b1-2)Man(a1-3)[Gal(b1-4)GlcNAc(b1-2)Man(a1-6)][Gal(b1-4)GlcNAc(b1-4)]Man(b1-4)GlcNAc(b1-4)[Fuc(a1-6)]GlcNAc
# Method in brief: as §1
# [20] = target: Gal(b1-4)GlcNAc(b1-2)Man(a1-3)[Gal(b1-4)GlcNAc(b1-2)Man(a1-6)][GlcNAc(b1-4)]Man(b1-4)GlcNAc(b1-4)[Fuc(a1-6)]GlcNAc
# Method in brief: as §1
# [21] = target: Gal(b1-4)GlcNAc(b1-2)Man(a1-3)[Gal(b1-4)GlcNAc(b1-2)][GlcNAc(b1-4)]Man(b1-4)GlcNAc(b1-4)GlcNAc
# Method in brief: as §1
# [22] = target: Gal(b1-4)GlcNAc(b1-2)Man(a1-3)[GlcNAc(b1-2)Man(a1-6)]Man(b1-4)GlcNAc(b1-4)GlcNAc
# Method in brief: as §1
# [23] = target: Gal(b1-4)GlcNAc(b1-2)Man(a1-3)[GlcNAc(b1-4)][Gal(b1-4)GlcNAc(b1-2)Man(a1-6)]Man(b1-4)GlcNAc(b1-4)GlcNAc
# Method in brief: as §1
# [24] = target: Gal(b1-4)GlcNAc(b1-2)Man(a1-3)[Man(a1-6)]Man(b1-4)GlcNAc(b1-4)GlcNAc
# Method in brief: as §1
# [25] = target: Gal(b1-4)GlcNAc(b1-2)Man(a1-6)Man(b1-4)GlcNAc(b1-4)GlcNAc
# Method in brief: as §1
# [26] = target: Gal(b1-4)GlcNAc(b1-2)Man(a1-6)[GlcNAc(b1-2)Man(a1-3)]Man(b1-4)GlcNAc(b1-4)GlcNAc
# Method in brief: as §1
# [27] = target: Gal(b1-4)GlcNAc(b1-2)Man(a1-6)[Man(a1-3)]Man(b1-4)GlcNAc(b1-4)GlcNAc
# Method in brief: as §1
# [28] = target: Gal(b1-4)GlcNAc(b1-2)[Gal(b1-4)GlcNAc(b1-4)]Man(a1-3)[Gal(b1-4)GlcNAc(b1-2)Man(a1-6)]Man(b1-4)GlcNAc(b1-4)GlcNAc
# Method in brief: as §1
# [29] = target: Gal(b1-4)GlcNAc(b1-2)[Gal(b1-4)GlcNAc(b1-4)]Man(a1-3)[Gal(b1-4)GlcNAc(b1-2)[Gal(b1-4)GlcNAc(b1-6)]Man(a1-6)]Man(b1-4)GlcNAc(b1-4)GlcNAc
# Method in brief: as §1
# [30] = target: Gal(b1-4)GlcNAc(b1-2)[Gal(b1-4)GlcNAc(b1-4)]Man(a1-3)[GlcNAc(b1-4)][Gal(b1-4)GlcNAc(b1-2)Man(a1-6)]Man(b1-4)GlcNAc(b1-4)GlcNAc
# Method in brief: as §1
# [31] = target: Gal(b1-4)GlcNAc(b1-2)[Gal(b1-4)GlcNAc(b1-4)]Man(a1-3)[GlcNAc(b1-4)][Gal(b1-4)GlcNAc(b1-2)[Gal(b1-4)GlcNAc(b1-6)]Man(a1-6)]Man(b1-4)GlcNAc(b1-4)GlcNAc
# Method in brief: as §1
# [32] = target: Gal(b1-4)GlcNAc(b1-2)[Gal(b1-4)GlcNAc(b1-4)]Man(a1-3)[GlcNAc(b1-4)][Gal(b1-4)GlcNAc(b1-2)[Gal(b1-4)GlcNAc(b1-6)]Man(a1-6)]Man(b1-4)GlcNAc(b1-4)[Fuc(a1-6)]GlcNAc
# Method in brief: as §1
# [33] = target: Gal(b1-4)GlcNAc(b1-2)[Gal(b1-4)GlcNAc(b1-6)]Man(a1-6)[Gal(b1-4)GlcNAc(b1-2)Man(a1-3)]Man(b1-4)GlcNAc(b1-4)GlcNAc
# Method in brief: as §1
# [34] = target: Gal(b1-4)GlcNAc(b1-2)[Gal(b1-4)GlcNAc(b1-6)]Man(a1-6)[Gal(b1-4)GlcNAc(b1-2)Man(a1-3)]Man(b1-4)GlcNAc(b1-4)[Fuc(a1-6)]GlcNAc
# Method in brief: as §1
# [35] = target: Gal(b1-4)GlcNAc(b1-2)[Gal(b1-4)GlcNAc(b1-6)]Man(a1-6)[GlcNAc(b1-4)][Gal(b1-4)GlcNAc(b1-2)Man(a1-3)]Man(b1-4)GlcNAc(b1-4)GlcNAc
# Method in brief: as §1
# [36] = target: Gal(b1-4)GlcNAc(b1-2)[Gal(b1-4)GlcNAc(b1-6)]Man(a1-6)[GlcNAc(b1-4)][Gal(b1-4)GlcNAc(b1-2)[Gal(b1-4)GlcNAc(b1-4)]Man(a1-3)]Man(b1-4)GlcNAc(b1-4)[Fuc(a1-6)]GlcNAc
# Method in brief: as §1
# [37] = target: Gal(b1-4)GlcNAc(b1-3)Gal(b1-3)GalNAc
# Method in brief: as §1
# [38] = target: Gal(b1-4)GlcNAc(b1-3)Gal(b1-3)GlcNAc
# Method in brief: as §1
# [39] = target: Gal(b1-4)GlcNAc(b1-3)Gal(b1-4)Glc
# Method in brief: as §1
# [40] = target: Gal(b1-4)GlcNAc(b1-3)Gal(b1-4)GlcNAc
# Method in brief: as §1
# [41] = target: Gal(b1-4)GlcNAc(b1-3)Gal(b1-4)GlcNAc(b1-2)Man(a1-3)[Gal(b1-4)GlcNAc(b1-3)Gal(b1-4)GlcNAc(b1-2)Man(a1-6)]Man(b1-4)GlcNAc(b1-4)GlcNAc
# Method in brief: as §1
# [42] = target: Gal(b1-4)GlcNAc(b1-3)Gal(b1-4)GlcNAc(b1-2)Man(a1-3)[Gal(b1-4)GlcNAc(b1-3)Gal(b1-4)GlcNAc(b1-2)Man(a1-6)]Man(b1-4)GlcNAc(b1-4)[Fuc(a1-6)]GlcNAc
# Method in brief: as §1
# [43] = target: Gal(b1-4)GlcNAc(b1-3)Gal(b1-4)GlcNAc(b1-2)[Gal(b1-4)GlcNAc(b1-3)Gal(b1-4)GlcNAc(b1-6)]Man(a1-6)[Gal(b1-4)GlcNAc(b1-3)Gal(b1-4)GlcNAc(b1-2)Man(a1-3)]Man(b1-4)GlcNAc(b1-4)GlcNAc
# Method in brief: as §1
# [44] = target: Gal(b1-4)GlcNAc(b1-3)Gal(b1-4)GlcNAc(b1-2)[Gal(b1-4)GlcNAc(b1-3)Gal(b1-4)GlcNAc(b1-6)]Man(a1-6)[Gal(b1-4)GlcNAc(b1-3)Gal(b1-4)GlcNAc(b1-2)Man(a1-3)]Man(b1-4)GlcNAc(b1-4)[Fuc(a1-6)]GlcNAc
# Method in brief: as §1
# [45] = target: Gal(b1-4)GlcNAc(b1-3)Gal(b1-4)GlcNAc(b1-3)Gal(b1-4)GlcNAc
# Method in brief: as §1
binder,measurement,setting,value
B1,glycan array binding signal (z-score),[1],0.069
same,glycan array binding signal (z-score),[2],0.642
same,glycan array binding signal (z-score),[3],-0.202
same,glycan array binding signal (z-score),[4],-0.442
same,glycan array binding signal (z-score),[5],-0.744
same,glycan array binding signal (z-score),[6],-0.538
same,glycan array binding signal (z-score),[7],0.059
same,glycan array binding signal (z-score),[8],0.086
same,glycan array binding signal (z-score),[9],0.152
same,glycan array binding signal (z-score),[10],-1.26
same,glycan array binding signal (z-score),[11],-0.206
same,glycan array binding signal (z-score),[12],-0.347
same,glycan array binding signal (z-score),[13],-0.261
same,glycan array binding signal (z-score),[14],0.29
same,glycan array binding signal (z-score),[15],-0.206
same,glycan array binding signal (z-score),[16],-0.452
same,glycan array binding signal (z-score),[17],-0.112
same,glycan array binding signal (z-score),[18],-0.548
same,glycan array binding signal (z-score),[19],0.399
same,glycan array binding signal (z-score),[20],-0.722
same,glycan array binding signal (z-score),[21],0.708
same,glycan array binding signal (z-score),[22],-0.365
same,glycan array binding signal (z-score),[23],-0.57
same,glycan array binding signal (z-score),[24],-0.774
same,glycan array binding signal (z-score),[25],0.316
same,glycan array binding signal (z-score),[26],0.321
same,glycan array binding signal (z-score),[27],0.817
same,glycan array binding signal (z-score),[28],-0.513
same,glycan array binding signal (z-score),[29],0.721
same,glycan array binding signal (z-score),[30],-0.708
same,glycan array binding signal (z-score),[31],1.01
same,glycan array binding signal (z-score),[32],-0.793
same,glycan array binding signal (z-score),[33],0.78
same,glycan array binding signal (z-score),[34],0.643
same,glycan array binding signal (z-score),[35],-0.127
same,glycan array binding signal (z-score),[36],-0.369
same,glycan array binding signal (z-score),[37],-0.642
same,glycan array binding signal (z-score),[38],-0.431
same,glycan array binding signal (z-score),[39],-0.335
same,glycan array binding signal (z-score),[40],0.264
same,glycan array binding signal (z-score),[41],0.012
same,glycan array binding signal (z-score),[42],2.05
same,glycan array binding signal (z-score),[43],1.43
same,glycan array binding signal (z-score),[44],2.23
same,glycan array binding signal (z-score),[45],-1.01

# Another view of some results above.
binder	measurement	setting	value
B1	glycan array binding signal (z-score)	[5]	-0.744
same	glycan array binding signal (z-score)	[6]	-0.538
